From the supplement of paper PMC10849652
This is one part of the list.

Sequences of proteins named here, by UniProt entry; tags and fusion partners are left off. A change or cut given only in a name is not applied to a line headed by its entry.
UniProt Q16629: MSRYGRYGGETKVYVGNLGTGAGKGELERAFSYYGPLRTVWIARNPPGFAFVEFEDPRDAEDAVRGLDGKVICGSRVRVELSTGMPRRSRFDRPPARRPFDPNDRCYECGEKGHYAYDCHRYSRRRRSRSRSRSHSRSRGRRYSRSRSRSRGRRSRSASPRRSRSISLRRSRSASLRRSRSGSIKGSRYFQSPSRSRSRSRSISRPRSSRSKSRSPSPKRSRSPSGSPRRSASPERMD
UniProt Q8N9Q2: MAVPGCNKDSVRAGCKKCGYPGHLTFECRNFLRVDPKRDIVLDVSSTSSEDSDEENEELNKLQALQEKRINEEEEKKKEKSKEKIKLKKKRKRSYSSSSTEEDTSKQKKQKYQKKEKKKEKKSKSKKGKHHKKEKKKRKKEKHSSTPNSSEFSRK
UniProt Q16385, whole entry, looked up: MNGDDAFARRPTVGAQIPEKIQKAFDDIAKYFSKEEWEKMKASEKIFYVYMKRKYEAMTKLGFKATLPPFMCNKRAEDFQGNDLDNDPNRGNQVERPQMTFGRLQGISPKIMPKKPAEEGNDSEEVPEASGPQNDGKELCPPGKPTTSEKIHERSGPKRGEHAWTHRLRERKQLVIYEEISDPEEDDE
UniProt O95772: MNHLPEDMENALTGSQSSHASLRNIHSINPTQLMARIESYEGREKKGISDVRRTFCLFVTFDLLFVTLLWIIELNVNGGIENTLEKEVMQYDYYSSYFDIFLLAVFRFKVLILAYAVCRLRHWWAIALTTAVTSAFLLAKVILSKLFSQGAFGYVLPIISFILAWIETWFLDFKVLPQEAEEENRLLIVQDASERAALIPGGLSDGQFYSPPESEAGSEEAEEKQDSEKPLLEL
UniProt Q9BUA3: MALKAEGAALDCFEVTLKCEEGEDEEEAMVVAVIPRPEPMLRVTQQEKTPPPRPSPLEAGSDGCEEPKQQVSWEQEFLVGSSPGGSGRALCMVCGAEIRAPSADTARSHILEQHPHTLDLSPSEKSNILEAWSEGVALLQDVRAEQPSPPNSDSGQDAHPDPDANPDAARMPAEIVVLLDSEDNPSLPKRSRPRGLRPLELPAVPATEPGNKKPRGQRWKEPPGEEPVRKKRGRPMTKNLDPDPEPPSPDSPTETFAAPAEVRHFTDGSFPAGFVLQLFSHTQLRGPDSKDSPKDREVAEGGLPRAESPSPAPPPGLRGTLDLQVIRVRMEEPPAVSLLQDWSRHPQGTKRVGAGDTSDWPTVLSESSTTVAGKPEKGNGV
UniProt Q9BWG4: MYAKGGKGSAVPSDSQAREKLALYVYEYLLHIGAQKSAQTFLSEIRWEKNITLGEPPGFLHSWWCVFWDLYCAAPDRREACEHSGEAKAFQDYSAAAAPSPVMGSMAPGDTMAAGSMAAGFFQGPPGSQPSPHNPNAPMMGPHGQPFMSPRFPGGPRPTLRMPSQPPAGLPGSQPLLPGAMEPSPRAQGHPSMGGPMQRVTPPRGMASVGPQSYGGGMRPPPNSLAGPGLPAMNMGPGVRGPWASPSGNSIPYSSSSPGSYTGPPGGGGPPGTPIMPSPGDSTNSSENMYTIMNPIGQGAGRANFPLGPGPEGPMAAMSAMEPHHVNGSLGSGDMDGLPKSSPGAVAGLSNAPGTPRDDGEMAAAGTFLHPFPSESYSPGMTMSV
UniProt Q8WVM7: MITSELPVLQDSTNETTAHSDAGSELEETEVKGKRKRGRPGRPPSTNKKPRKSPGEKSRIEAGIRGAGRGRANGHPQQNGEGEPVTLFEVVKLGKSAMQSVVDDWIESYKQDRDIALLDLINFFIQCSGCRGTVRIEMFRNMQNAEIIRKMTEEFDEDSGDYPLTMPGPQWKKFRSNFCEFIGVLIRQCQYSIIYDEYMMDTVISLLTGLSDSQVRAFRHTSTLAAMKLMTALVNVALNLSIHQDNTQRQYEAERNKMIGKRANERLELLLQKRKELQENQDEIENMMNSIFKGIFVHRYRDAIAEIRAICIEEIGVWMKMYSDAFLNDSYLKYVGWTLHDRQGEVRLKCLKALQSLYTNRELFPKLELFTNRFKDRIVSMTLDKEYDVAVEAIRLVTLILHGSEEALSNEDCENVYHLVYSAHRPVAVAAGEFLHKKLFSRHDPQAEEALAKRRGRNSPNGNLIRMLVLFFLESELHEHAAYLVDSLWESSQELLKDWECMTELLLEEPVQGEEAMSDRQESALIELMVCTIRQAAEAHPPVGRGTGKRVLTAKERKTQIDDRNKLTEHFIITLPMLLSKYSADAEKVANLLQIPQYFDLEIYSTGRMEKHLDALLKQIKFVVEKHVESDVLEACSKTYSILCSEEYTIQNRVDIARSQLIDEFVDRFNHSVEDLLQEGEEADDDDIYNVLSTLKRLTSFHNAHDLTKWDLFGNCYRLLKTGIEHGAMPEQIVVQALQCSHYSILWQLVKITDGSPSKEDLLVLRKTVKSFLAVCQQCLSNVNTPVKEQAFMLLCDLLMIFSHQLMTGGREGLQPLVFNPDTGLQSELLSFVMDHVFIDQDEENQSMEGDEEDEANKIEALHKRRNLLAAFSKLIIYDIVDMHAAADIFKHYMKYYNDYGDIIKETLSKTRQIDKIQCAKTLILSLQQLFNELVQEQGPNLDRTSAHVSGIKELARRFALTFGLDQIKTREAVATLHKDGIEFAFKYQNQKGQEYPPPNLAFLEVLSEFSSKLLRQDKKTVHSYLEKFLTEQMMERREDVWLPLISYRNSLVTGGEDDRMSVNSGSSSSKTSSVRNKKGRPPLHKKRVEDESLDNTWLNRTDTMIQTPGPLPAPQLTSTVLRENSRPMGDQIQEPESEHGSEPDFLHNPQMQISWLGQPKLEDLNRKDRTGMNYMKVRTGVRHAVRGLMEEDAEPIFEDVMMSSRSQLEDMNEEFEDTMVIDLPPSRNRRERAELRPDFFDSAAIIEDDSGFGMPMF
UniProt Q9NSC7: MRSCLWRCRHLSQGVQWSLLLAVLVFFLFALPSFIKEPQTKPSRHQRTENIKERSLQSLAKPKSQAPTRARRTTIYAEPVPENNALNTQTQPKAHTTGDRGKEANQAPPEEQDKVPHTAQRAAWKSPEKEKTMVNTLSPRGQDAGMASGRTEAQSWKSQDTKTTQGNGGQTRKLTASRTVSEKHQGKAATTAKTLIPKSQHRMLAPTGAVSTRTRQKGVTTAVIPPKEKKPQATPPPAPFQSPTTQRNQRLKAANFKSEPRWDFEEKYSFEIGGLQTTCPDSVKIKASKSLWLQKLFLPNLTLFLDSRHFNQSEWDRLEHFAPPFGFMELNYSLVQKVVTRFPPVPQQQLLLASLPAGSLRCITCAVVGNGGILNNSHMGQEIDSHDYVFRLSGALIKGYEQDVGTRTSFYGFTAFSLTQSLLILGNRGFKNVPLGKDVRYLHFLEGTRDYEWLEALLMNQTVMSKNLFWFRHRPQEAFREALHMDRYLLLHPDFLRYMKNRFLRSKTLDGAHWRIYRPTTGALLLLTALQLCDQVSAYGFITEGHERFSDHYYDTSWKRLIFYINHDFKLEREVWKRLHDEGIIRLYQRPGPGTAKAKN
UniProt P49675, whole entry, looked up: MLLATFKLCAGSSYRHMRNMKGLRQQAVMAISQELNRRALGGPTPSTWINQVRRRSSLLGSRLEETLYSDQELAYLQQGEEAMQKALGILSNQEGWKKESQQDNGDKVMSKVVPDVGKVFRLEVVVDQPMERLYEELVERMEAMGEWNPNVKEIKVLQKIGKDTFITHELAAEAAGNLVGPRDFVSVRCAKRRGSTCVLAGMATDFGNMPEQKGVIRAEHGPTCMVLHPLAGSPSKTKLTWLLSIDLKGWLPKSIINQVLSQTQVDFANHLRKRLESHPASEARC
UniProt Q01082, whole entry, looked up: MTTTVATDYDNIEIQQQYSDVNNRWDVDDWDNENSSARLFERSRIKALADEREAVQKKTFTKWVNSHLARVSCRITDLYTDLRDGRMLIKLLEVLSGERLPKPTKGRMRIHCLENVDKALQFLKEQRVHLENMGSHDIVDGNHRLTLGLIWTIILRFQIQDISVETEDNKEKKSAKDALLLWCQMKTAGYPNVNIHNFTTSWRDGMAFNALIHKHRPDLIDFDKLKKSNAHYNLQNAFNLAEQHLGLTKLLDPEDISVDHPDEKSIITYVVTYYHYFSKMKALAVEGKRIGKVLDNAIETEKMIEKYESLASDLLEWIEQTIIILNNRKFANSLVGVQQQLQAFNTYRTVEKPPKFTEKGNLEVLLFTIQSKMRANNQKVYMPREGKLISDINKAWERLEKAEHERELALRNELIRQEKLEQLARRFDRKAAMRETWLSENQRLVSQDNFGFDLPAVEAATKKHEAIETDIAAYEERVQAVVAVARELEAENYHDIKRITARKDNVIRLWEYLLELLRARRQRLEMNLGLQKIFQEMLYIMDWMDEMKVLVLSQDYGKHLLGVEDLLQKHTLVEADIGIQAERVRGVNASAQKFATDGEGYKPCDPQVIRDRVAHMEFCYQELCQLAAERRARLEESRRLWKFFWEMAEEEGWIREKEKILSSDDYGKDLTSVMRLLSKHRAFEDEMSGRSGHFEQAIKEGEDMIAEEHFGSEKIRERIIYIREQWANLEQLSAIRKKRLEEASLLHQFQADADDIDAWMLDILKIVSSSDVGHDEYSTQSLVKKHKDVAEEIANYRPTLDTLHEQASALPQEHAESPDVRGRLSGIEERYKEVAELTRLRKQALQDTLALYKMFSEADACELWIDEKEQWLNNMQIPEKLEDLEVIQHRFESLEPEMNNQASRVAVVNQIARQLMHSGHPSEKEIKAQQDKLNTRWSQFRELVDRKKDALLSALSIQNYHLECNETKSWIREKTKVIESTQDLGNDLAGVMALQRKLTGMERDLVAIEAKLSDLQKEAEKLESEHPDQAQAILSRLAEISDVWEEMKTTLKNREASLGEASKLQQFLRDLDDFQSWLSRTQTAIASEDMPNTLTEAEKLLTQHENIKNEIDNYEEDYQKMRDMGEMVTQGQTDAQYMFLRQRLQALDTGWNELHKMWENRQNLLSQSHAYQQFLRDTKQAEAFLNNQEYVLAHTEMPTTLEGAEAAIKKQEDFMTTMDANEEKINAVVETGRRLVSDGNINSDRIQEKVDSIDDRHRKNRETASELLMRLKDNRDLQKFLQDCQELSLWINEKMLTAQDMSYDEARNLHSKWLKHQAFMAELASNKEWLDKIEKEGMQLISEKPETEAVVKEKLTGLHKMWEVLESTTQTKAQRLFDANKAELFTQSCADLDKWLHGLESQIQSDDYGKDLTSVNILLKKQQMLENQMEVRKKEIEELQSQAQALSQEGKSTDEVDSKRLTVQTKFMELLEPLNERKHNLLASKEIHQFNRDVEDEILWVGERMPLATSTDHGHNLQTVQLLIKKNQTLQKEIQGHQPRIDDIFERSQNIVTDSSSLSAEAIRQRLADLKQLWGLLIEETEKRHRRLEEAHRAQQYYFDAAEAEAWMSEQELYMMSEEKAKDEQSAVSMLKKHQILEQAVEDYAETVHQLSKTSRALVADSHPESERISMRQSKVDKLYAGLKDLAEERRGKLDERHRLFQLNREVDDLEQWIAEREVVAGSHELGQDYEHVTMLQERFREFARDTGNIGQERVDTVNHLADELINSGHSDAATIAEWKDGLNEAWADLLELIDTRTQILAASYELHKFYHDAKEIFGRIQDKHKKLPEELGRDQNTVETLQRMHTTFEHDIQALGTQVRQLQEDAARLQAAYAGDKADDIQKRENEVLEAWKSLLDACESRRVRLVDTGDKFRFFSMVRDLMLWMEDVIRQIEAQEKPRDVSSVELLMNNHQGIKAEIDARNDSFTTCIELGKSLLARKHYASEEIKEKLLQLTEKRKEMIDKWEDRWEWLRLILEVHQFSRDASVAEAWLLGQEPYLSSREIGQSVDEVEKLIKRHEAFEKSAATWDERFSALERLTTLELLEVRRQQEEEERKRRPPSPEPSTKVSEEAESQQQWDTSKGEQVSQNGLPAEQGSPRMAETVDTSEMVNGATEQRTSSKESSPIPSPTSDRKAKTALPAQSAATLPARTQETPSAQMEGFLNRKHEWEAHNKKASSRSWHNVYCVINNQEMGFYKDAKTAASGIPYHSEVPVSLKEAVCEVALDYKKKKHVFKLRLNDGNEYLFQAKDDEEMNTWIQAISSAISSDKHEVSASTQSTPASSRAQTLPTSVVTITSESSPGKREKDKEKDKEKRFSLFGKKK
UniProt P49458: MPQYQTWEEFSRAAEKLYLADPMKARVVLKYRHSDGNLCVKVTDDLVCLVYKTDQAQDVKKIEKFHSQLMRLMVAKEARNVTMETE
UniProt Q5T280: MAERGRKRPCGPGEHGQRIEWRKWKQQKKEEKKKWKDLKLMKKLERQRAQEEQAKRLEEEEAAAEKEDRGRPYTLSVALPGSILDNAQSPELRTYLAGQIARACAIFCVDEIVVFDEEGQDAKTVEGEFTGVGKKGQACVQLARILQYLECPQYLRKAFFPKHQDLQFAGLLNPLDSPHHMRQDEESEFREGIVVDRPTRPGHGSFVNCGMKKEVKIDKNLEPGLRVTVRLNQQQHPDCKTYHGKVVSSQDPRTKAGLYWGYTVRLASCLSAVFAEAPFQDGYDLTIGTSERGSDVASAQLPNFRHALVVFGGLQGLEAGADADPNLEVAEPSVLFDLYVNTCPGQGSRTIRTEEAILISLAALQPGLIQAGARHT

Compound: O=C1NC(=O)C(c2cnc3ccccn23)=C1c1cn2c3c(cc(F)cc13)CN(C(=O)N1CCCCC1)CC2
Assay: log2 fold change, soluble protein after heating vs DMSO (PISA); higher = thermal stabilisation; K562 lysate, 10 uM; active = over 0.2 and 3.5 SD of the protein, either way, in both replicates (recomputed)
Procedure, shortened: (§1)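 Log-two fold change in thermal stability relative to solvent controls is reported from duplicates. For each sample, crude K562 extract from dounce-homogenised pellets in PBS pH 7.4 with 1 mM MgCl2, at 1 mg/mL protein, was treated with 10 μM compound for 30 min. Aliquots heated for 3 min across 48°C-58°C were pooled, brought to 0.5% NP-40 at 4°C and cleared at 21,000xg for 90 min. The supernatant was quantified by TMTpro 16plex LC-MS/MS with channel sums equalised.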

log2 fold change, inactive:
STEAP3 isoform 2 (UniProt Q658P3) 0.045, STAT3 isoform 2 (UniProt P40763) -0.009, STAT1 isoform 2 (UniProt P42224) -0.065, SRSF7 (UniProt Q16629) -0.014, SREK1IP1 (UniProt Q8N9Q2) -0.053, SPTAN1 (UniProt Q13813) -0.011, SSX2 (UniProt Q16385) -0.031, SPTY2D1 (UniProt Q68D10) 0.007, STARD3NL (UniProt O95772) -0.036, SPATS2 (UniProt Q86XZ4) -0.049, SPG21 (UniProt Q9NZD8) -0.102, STARD9 (UniProt Q9P2P6) -0.056, STAMBP (UniProt O95630) -0.043, SSU72 (UniProt Q9NP77) -0.021, SPINDOC (UniProt Q9BUA3) -0.132, SPIRE1 (UniProt Q08AE8) -0.129, SPINT1 (UniProt O43278) 0.059, SSBP4 (UniProt Q9BWG4) 0.024, ST3GAL4 isoform 4 (UniProt Q11206) 0.026, STAG1 (UniProt Q8WVM7) -0.001, SS18L1 (UniProt O75177) 0.007, ST6GALNAC1 (UniProt Q9NSC7) -0.001, SPATS2L isoform 2 (UniProt Q9NUQ6) 0.049, SPG11 (UniProt Q96JI7) 0.04, STAU1 isoform 3 (UniProt O95793) -0.156, STAR (UniProt P49675) -0.031, SPTBN1 isoform 3 (UniProt Q01082) -0.048, SRP9 (UniProt P49458) -0.031

Compound: c1cn2cc(-c3ccc4cn[nH]c4c3)nc(Nc3ccc(N4CCOCC4)cc3)c2n1 [entospletinib]
Assay: as above
Procedure, shortened: as §1

log2 fold change, inactive:
STEAP3 isoform 2 (UniProt Q658P3) -0.005, STAT3 isoform 2 (UniProt P40763) 0.033, SPOUT1 (UniProt Q5T280) -0.041, SRSF7 (UniProt Q16629) -0.013, SREK1IP1 (UniProt Q8N9Q2) -0.035, SPTAN1 (UniProt Q13813) 0.01, SSX2 (UniProt Q16385) 0.01, STARD3NL (UniProt O95772) -0.037, SPATS2 (UniProt Q86XZ4) 0.176, SPG21 (UniProt Q9NZD8) -0.046, STARD9 (UniProt Q9P2P6) -0.039, STAMBP (UniProt O95630) 0.012, SSU72 (UniProt Q9NP77) -0.014, SPINDOC (UniProt Q9BUA3) -0.104, SPIRE1 (UniProt Q08AE8) 0.076, SSBP4 (UniProt Q9BWG4) -0.057, SPATA33 isoform 2 (UniProt Q96N06) -0.105, ST3GAL4 isoform 4 (UniProt Q11206) 0.043, STAG1 (UniProt Q8WVM7) 0.023, ST6GALNAC1 (UniProt Q9NSC7) -0.02, SPATS2L isoform 2 (UniProt Q9NUQ6) 0.067, SPATA7 (UniProt Q9P0W8) 0.047, SPG11 (UniProt Q96JI7) -0.098, STAR (UniProt P49675) -0.103, SPTBN1 isoform 3 (UniProt Q01082) -0.129, SRP9 (UniProt P49458) -0.044
